Data source: PubChem BioAssay AID504791 (Drosophila RNAi Screening Center, 2011)

Screen: 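Genes whose knock-down strengthens or weakens small-RNA reporter silencing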 (primary screen)
Cells: Drosophila S2-derived reporter cells
Reagents: long dsRNA against Drosophila genes, about 150-250 ng dsRNA per well (siRNA assay); about 80-120 ng (miRNA assay)
Duration: about 5 days (siRNA assay); about 4 days (miRNA assay)
Treatment: copper sulfate induction of reporters: 25 µM (siRNA assay); 200 mM stated (miRNA assay), 1-2 days before reading
Read-out: 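Per-well ratio of Renilla over firefly light, expressed relative to that plate's average ratio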
Scale: siRNA reporter hit score: higher = 3 marks a strong hit with raised ratio; -3 a strong hit with lowered ratio
Hit rule: 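First-pass picks had plate-scaled ratios over 1.5 for the siRNA assay, over 1.6 for the miRNA assay, or under 0.6; two distinct dsRNAs had to score alike on retest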
The deposit covers about 23,000 reagents; this is a random part of those with a known target gene and a result. Over the whole deposit, 199 (0.86%) got an active call. 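Plate-scaled ratios behind the calls are not deposited; printed light signals are raw; many rows marked increased or decreased are still called inactive.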 The numbers tell different reagents against one gene apart. No sequences are given here.

| gene | dsRNA no. | siRNA reporter hit score | miRNA reporter change | stable assay Renilla, run 1 (luminescence) | stable assay firefly, run 1 (luminescence) | activity call |
| --- | --- | --- | --- | --- | --- | --- |
| spdo (sanpodo) | 1 | – | – | 8819 | 4.13e5 | inactive |
| cv (crossveinless) | 1 | – | – | 4454 | 2.99e5 | inactive |
| CG12091 | 1 | – | – | 6619 | 3.09e5 | inactive |
| Acox57D-d (acyl-Coenzyme A oxidase at 57D distal) | 1 | – | – | 10127 | 3.57e5 | inactive |
| CG13070 | 1 | – | – | 8050 | 4.09e5 | inactive |
| CG13043 | 1 | – | – | 7107 | 4.18e5 | inactive |
| CG34382 | 1 | – | – | 4660 | 4.58e5 | inactive |
| CG34382 | 2 | – | – | 6698 | 4.20e5 | inactive |
| CG34382 | 3 | – | – | 7555 | 4.02e5 | inactive |
| pie (pineapple eye) | 1 | – | – | 17988 | 8.37e5 | inactive |
| Lgr3 (Leucine-rich repeat-containing G protein-coupled receptor 3) | 1 | – | – | 6447 | 3.49e5 | inactive |
| Lgr3 (Leucine-rich repeat-containing G protein-coupled receptor 3) | 2 | – | – | 8557 | 4.11e5 | inactive |
| CG13042 | 1 | – | – | 6743 | 4.17e5 | inactive |
| Nuf2 | 1 | – | – | 15132 | 2.63e5 | inactive |
| MED19 (Mediator complex subunit 19) | 1 | – | – | 5618 | 1.84e5 | inactive |
| CG5614 | 1 | – | – | 3835 | 3.55e5 | inactive |
| CG14015 | 1 | – | – | 8295 | 5.81e5 | inactive |
| CG8916 | 1 | – | – | 5903 | 4.02e5 | inactive |
| heph (hephaestus) | 1 | – | – | 7266 | 4.00e5 | inactive |
| heph (hephaestus) | 2 | – | – | 6738 | 2.48e5 | inactive |
| heph (hephaestus) | 3 | – | – | 5058 | 2.41e5 | inactive |
| heph (hephaestus) | 4 | – | – | 5011 | 3.64e5 | inactive |
| mrj | 1 | – | – | 5882 | 6.26e5 | inactive |
| Ank2 (Ankyrin 2) | 1 | – | – | 4606 | 2.96e5 | inactive |
| Ank2 (Ankyrin 2) | 2 | – | – | 6047 | 3.78e5 | inactive |
| Ank2 (Ankyrin 2) | 3 | – | – | 6646 | 3.49e5 | inactive |
| Ank2 (Ankyrin 2) | 4 | – | – | 6812 | 3.64e5 | inactive |
| Ank2 (Ankyrin 2) | 5 | – | – | 5956 | 4.82e5 | inactive |
| dor (deep orange) | 1 | – | – | 6991 | 4.48e5 | inactive |
| obst-I (obstructor-I) | 1 | – | – | 9723 | 2.87e5 | inactive |
| Hel25E (Helicase at 25E) | 1 | – | – | 71011 | 4.13e5 | inactive |
| CG5676 | 1 | – | – | 7423 | 4.93e5 | inactive |
| CG13247 | 1 | – | – | 6650 | 4.42e5 | inactive |
| CG6126 | 1 | – | – | 9111 | 4.07e5 | inactive |
| sut1 (sugar transporter 1) | 1 | – | – | 7640 | 4.05e5 | inactive |
| Fbp1 (Fat body protein 1) | 1 | – | – | 7234 | 4.17e5 | inactive |
| CG6495 | 1 | – | – | 7192 | 7.28e5 | inactive |
| yip2 (yippee interacting protein 2) | 1 | – | – | 7573 | 3.47e5 | inactive |
| CG8508 | 1 | – | – | 8015 | 4.07e5 | inactive |
| kibra | 1 | – | – | 7934 | 4.34e5 | inactive |
| kibra | 2 | – | reporter ratio raised past the hit cutoff | 7850 | 2.99e5 | inactive |
| kibra | 3 | – | – | 3196 | 2.32e5 | inactive |
| CG8032 | 1 | – | – | 7212 | 4.78e5 | inactive |
| na (narrow abdomen) | 1 | – | – | 5791 | 5.46e5 | inactive |
| Acp95EF (Accessory gland protein 95EF) | 1 | – | – | 7475 | 4.34e5 | inactive |
| stau (staufen) | 1 | – | – | 8334 | 2.74e5 | inactive |
| FLASH (FLICE-associated huge protein) | 1 | – | – | 4043 | 4.74e5 | inactive |
| raptor | 1 | 3 | reporter ratio lowered past the hit cutoff | 4144 | 2.91e5 | active |
| CG11294 | 1 | – | – | 5682 | 2.30e5 | inactive |
| CG14839 | 1 | – | – | 4455 | 3.86e5 | inactive |
| Pkcdelta (Protein kinase C delta) | 1 | – | – | 6090 | 5.75e5 | inactive |
| Pkcdelta (Protein kinase C delta) | 2 | – | – | 5368 | 4.69e5 | inactive |
| Usf | 1 | – | – | 5947 | 2.42e5 | inactive |
| Rrp46 | 1 | – | – | 9185 | 4.16e5 | inactive |
| Acbp2 (Acyl-CoA binding protein 2) | 1 | – | – | 4987 | 3.51e5 | inactive |
| sdk (sidekick) | 1 | – | – | 8347 | 5.22e5 | inactive |
| CG4709 | 1 | – | – | 7110 | 2.86e5 | inactive |
